Laboratory results taken from article PMC7545202.
Like-named read-outs stand apart in the source and are kept apart here. These are yes or no findings as the source states them, for the method shown. In cells and extracts the contact can be indirect. Some results given as binding are weak or reduced against the parent protein; the word gives no strength. Values belong to the molecule of their own block, whether it stands above or below them.

Chains of the proteins cited; added tags and fusions are not shown.
UniProt Q5NCY0: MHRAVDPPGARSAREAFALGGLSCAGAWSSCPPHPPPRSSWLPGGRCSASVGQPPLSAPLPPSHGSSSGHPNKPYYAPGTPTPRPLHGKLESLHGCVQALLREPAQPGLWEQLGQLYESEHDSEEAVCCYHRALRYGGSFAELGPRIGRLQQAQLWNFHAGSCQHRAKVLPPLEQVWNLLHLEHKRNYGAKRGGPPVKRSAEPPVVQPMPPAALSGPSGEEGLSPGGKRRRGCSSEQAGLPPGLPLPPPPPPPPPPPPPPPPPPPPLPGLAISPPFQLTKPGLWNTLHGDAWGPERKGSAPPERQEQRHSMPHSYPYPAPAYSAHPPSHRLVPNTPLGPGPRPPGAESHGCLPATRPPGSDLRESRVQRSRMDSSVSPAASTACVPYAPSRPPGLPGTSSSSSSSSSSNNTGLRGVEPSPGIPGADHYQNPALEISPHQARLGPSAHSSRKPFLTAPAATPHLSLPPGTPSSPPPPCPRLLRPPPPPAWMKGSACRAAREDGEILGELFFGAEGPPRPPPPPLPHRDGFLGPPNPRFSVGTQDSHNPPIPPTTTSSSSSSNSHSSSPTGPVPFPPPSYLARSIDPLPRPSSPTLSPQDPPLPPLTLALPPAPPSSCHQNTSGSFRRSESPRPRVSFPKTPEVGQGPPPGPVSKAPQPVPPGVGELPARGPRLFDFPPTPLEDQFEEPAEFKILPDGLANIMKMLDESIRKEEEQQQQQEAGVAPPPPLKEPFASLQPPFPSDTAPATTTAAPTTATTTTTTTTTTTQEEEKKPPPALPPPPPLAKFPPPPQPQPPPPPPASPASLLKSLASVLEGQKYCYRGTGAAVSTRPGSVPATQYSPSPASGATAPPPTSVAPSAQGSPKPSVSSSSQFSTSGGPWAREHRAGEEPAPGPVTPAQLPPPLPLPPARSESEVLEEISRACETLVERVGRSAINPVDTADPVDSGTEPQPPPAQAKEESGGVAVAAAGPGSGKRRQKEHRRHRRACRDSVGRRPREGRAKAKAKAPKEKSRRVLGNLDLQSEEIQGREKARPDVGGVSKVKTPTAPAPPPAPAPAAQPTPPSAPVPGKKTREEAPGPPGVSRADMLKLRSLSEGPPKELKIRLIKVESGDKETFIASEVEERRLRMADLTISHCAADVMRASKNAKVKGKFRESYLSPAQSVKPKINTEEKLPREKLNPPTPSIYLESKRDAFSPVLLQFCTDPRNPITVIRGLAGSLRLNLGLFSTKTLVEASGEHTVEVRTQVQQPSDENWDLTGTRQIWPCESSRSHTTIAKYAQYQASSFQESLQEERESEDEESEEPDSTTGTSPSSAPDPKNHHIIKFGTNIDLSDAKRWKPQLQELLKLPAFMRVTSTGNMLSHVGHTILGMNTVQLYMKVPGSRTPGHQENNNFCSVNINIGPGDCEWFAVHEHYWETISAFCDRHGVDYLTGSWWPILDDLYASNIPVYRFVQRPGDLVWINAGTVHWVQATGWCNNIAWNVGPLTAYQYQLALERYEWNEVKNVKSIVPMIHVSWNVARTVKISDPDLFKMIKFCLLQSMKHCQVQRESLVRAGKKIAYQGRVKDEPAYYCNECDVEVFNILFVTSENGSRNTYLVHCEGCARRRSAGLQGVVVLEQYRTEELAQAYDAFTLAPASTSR
UniProt Q99J95: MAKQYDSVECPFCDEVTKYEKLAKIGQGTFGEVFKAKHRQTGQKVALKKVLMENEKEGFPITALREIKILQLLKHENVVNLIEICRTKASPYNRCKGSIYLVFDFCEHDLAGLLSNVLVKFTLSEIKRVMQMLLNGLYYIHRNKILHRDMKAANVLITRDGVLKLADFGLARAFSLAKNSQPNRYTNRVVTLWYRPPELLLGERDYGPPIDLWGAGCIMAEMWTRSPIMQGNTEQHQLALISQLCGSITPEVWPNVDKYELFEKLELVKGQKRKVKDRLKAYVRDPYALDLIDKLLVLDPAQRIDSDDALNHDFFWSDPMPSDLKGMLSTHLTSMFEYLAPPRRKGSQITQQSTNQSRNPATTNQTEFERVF
UniProt Q6KCD5: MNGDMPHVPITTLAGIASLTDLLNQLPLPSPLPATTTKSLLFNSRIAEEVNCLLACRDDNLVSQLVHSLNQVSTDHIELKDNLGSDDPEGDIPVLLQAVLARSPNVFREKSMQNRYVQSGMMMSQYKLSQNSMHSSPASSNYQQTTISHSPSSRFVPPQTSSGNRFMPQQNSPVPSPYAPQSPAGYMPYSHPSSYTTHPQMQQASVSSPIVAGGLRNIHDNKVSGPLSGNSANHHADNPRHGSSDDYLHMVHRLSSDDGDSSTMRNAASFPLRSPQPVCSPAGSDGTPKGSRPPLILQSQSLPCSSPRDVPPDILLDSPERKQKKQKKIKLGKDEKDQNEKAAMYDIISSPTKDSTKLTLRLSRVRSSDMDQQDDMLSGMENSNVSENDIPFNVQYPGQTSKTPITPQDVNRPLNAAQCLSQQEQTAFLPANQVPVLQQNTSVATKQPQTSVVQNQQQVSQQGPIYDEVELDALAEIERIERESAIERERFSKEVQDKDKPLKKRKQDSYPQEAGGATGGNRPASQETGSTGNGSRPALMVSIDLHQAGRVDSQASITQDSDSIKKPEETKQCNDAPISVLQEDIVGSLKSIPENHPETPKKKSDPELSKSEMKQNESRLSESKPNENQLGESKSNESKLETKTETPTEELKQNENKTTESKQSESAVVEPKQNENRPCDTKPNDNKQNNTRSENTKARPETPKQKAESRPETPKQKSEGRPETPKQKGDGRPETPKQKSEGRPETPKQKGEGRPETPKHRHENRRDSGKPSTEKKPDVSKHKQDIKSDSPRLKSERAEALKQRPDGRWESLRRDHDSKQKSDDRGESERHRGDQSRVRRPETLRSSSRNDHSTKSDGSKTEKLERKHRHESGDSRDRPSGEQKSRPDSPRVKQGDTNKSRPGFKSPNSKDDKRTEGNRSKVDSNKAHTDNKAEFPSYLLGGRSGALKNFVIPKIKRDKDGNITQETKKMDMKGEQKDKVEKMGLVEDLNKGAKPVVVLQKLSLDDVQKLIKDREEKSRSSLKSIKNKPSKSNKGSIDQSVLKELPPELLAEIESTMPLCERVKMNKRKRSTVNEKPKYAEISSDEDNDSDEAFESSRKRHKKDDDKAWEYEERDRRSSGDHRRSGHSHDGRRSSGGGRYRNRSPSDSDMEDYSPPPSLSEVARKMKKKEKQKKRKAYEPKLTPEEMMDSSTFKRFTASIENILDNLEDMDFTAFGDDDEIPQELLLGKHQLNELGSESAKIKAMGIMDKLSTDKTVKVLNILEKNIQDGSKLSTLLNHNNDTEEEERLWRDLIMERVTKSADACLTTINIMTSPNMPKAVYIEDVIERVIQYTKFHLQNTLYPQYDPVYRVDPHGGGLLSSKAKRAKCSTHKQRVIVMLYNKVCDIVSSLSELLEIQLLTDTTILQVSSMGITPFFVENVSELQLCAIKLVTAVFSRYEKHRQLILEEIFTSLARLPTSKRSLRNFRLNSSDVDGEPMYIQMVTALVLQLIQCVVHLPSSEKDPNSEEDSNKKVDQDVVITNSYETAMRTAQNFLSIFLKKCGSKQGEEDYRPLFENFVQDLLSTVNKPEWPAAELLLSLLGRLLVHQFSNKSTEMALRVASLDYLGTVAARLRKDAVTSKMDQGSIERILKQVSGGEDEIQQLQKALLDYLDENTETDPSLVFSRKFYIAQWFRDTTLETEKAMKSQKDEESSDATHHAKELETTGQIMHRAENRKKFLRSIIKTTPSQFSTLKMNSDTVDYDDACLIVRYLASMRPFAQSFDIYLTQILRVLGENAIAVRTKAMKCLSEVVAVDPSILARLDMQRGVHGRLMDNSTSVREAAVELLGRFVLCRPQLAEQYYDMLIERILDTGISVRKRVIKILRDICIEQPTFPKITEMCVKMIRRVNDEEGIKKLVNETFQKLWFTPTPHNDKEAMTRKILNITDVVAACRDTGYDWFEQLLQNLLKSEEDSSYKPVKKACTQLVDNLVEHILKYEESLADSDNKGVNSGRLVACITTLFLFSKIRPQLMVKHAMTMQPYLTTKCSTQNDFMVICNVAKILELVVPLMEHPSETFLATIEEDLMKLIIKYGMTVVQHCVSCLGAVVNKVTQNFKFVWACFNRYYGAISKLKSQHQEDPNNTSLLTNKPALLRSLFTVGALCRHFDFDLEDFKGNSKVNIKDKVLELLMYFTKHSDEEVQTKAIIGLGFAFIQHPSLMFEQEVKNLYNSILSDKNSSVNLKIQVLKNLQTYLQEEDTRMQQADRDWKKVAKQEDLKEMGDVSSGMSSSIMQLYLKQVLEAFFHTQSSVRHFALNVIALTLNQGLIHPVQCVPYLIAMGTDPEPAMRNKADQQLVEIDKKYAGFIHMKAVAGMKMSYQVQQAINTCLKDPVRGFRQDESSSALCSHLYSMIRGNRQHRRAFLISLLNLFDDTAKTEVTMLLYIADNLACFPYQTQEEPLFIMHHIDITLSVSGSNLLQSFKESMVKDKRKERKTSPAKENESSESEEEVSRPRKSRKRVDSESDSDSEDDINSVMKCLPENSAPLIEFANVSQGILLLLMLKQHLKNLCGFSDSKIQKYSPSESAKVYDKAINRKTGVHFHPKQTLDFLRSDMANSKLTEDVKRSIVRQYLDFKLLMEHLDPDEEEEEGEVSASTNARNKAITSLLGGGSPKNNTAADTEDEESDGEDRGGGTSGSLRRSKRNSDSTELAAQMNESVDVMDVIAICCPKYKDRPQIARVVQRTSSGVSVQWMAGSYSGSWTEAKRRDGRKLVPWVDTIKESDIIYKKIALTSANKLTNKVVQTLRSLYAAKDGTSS

What was measured:
[1] = target: 3×FLAG-tagged JMJD3 (mouse) (UniProt Q5NCY0); experiment: co-IP; anti-FLAG M2 magnetic beads with nuclear extracts (2 × 10^7 cells) from OSKM-reprogrammed P2 MEFs with 3×FLAG-tagged JMJD3 (day 5), overnight at 4 °C; washed 5-8 times (50 mM Tris-HCl pH 7.9, 100 mM KCl, 0.1% NP-40); eluted with 3×FLAG peptide; western blotting
[2] = target: 3×FLAG-tagged JMJD3 (mouse) (UniProt Q5NCY0); experiment: as above; remark: listed apart in the source

binding [1]: binds
Molecule: CDK9 (from UniProt Q99J95 1-372) (enzyme)

binding [1]: binds
Molecule: NIPBL (from UniProt Q6KCD5 1-2798)

binding [2]: binds
B1: SMC1A (protein, UniProt Q9CU62 1-1233)
chain: MGFLKLIEIENFKSYKGRQIIGPFQRFTAIIGPNGSGKSNLMDAISFVLGEKTSNLRVKTLRDLIHGAPVGKPAANRAFVSMVYSEEGAEDRTFARVIVGGSSEYKINNKVVQLHEYSEELEKLGILIKARNFLVFQGAVESIAMKNPKERTALFEEISRSGELAQEYDKRKKEMVKAEEDTQFNYHRKKNIAAERKEAKQEKEEADRYQRLKDEVVRAQVQLQLFKLYHNEVEIEKLNKELASKNKEIEKDKKRMDKVEDELKEKKKELGKMMREQQQIEKEIKEKDSELNQKRPQYIKAKENTSHKIKKLEAAKKSLQNAQKHYKKRKGDMDELEKEMLSVEKARQEFEERMEEESQSQGRDLTLEENQVKKYHRLKEEASKRAATLAQELEKFNRDQKADQDRLDLEERKKVETEAKIKQKLREIEENQKRIEKLEEYITTSKQSLEEQKKLEGELTEEVEMAKRRIDEINKELNQVMEQLGDARIDRQESSRQQRKAEIMESIKRLYPGSVYGRLIDLCQPTQKKYQIAVTKVLGKNMDAIIVDSEKTGRDCIQYIKEQRGEPETFLPLDYLEVKPTDEKLRELKGAKLVIDVIRYEPPHIKKALQYACGNALVCDNVEDARRIAFGGHQRHKTVALDGTLFQKSGVISGGASDLKAKARRWDEKAVDKLKEKKERLTEELKEQMKAKRKEAELRQVQSQAHGLQMRLKYSQSDLEQTKTRHLALNLQEKSKLESELANFGPRINDIKRIIQSREREMKDLKEKMNQVEDEVFEEFCREIGVRNIREFEEEKVKRQNEIAKKRLEFENQKTRLGIQLDFEKNQLKEDQDKVHMWEQTVKKDENEIEKLKKEEQRHMKIIDETMAQLQDLKNQHLAKKSEVNDKNHEMEEIRKKLGGANKEMTHLQKEVTAIETKLEQKRSDRHNLLQACKMQDIKLPLSKGTMDDISQEEGSSQGEESVSGSQRTSSIYAREALIEIDYGDLCEDLKDAQAEEEIKQEMNTLQQKLNEQQSVLQRIAAPNMKAMEKLESVRDKFQETSDEFEAARKRAKKAKQAFEQIKKERFDRFNACFESVATNIDEIYKALSRNSSAQAFLGPENPEEPYLDGINYNCVAPGKRFRPMDNLSGGEKTVAALALLFAIHSYKPAPFFVLDEIDAALDNTNIGKVANYIKEQSTCNFQAIVISLKEEFYTKAESLIGVYPEQGDCVISKVLTFDLTKYPDANPNPNEQ
